23 compounds from PubChem BioAssay AID330 (DTP/NCI, 2004) can be followed below.

This assay deals with P388 leukemia ip, CD2F1 mice, survival T/C. The experiment in a line: NCI In Vivo Anticancer Drug Screen. Data for tumor model P388 Leukemia (intraperitoneal) in CD2F1 (CDF1) mice. As to conditions: T/C endpoint: median survival time, higher T/C = longer survival.
Setting [1] is: dose: 200.0 mg/kg/injection, schedule: Q04DX003 (ip), vehicle: saline with Tween-80.
[2] abbreviates: dose: 400.0 mg/kg/injection, schedule: Q04DX003 (ip), vehicle: saline with Tween-80.
The mark [3] stands for this setting: dose: 200.0 mg/kg/injection, schedule: Q01DX005 (ip), vehicle: Klucel (hydroxypropylcellulose) (HPC).
Where [4] appears, read: dose: 100.0 mg/kg/injection, schedule: Q01DX009 (ip), vehicle: saline with Tween-80.
The mark [5] stands for this setting: dose: 25.0 mg/kg/injection, schedule: Q01DX009 (ip), vehicle: Klucel (hydroxypropylcellulose) (HPC).
Where [6] appears, read: dose: 50.0 mg/kg/injection, schedule: Q01DX009 (ip), vehicle: Klucel (hydroxypropylcellulose) (HPC).
[7] abbreviates: dose: 200.0 mg/kg/injection, schedule: Q01DX009 (ip), vehicle: saline with Tween-80.
Setting [8] is: dose: 6.25 mg/kg/injection, schedule: Q01DX009 (ip), vehicle: saline with Tween-80.
Where [9] appears, read: dose: 12.5 mg/kg/injection, schedule: Q01DX009 (ip), vehicle: saline with Tween-80.
The mark [10] stands for this setting: dose: 200.0 mg/kg/injection, schedule: Q01DX009 (ip), vehicle: Klucel (hydroxypropylcellulose) (HPC).
[11] abbreviates: dose: 100.0 mg/kg/injection, schedule: Q01DX009 (ip), vehicle: saline.
The mark [12] stands for this setting: dose: 6.25 mg/kg/injection, schedule: Q01DX009 (ip), vehicle: saline.
The mark [13] stands for this setting: dose: 12.5 mg/kg/injection, schedule: Q01DX009 (ip), vehicle: saline.

The structures appear in SMILES notation. The list is a part of this screen's results and no random one: it gathers tests that were run many times, whatever their T/C, doses with no T/C, and many T/C values between a quarter and a half above the control. Further doses and runs are listed elsewhere. T/C: endpoint of the treated group in % of that of the vehicle group. Some doses have a count of surviving animals in place of a T/C: the source holds a T/C of zero for them, seemingly a mark for toxic or unscored doses. Some survivor counts are full or nearly so, which does not show that the dose was tolerated: the source hardly ever lists a survival T/C far under the control, and the zero likely stands for such cases as well. Counts of survivors are from the toxicity check (mostly the fifth day) where no day follows; animals may have died later. Schedules are NCI's codes, taken here to give the interval after Q, in days (D) or hours (H), and the number of doses after X. Some entries were tested several times; the values are given in rising order. For survival time, this PubChem deposit counts one and a half times the control or more as active, and values a quarter to a half above the control carry no call in these data; other NCI protocols may use other cut-offs.

Consider `O=[n+]1c2ccccc2n([O-])c2ccccc21.[Cl][Ni][Cl]`, for which the survivor count is listed as 2 of 6 (dose: 50.0 mg/kg/injection, schedule: Q04DX003 (ip), vehicle: saline with Tween-80); 0 of 6 (dose: 100.0 mg/kg/injection, schedule: Q04DX003 (ip), vehicle: saline with Tween-80); 0 of 6 under setting [1]; 0 of 6 under setting [2].
Turning to `CCCCCCCCCCCC(=O)NC1CC(O[C@H]2C[C@](O)(C(C)=O)Cc3c(O)c4c(c(O)c32)C(=O)c2c(OC)cccc2C4=O)OC(C)C1O` (some centres undefined), the T/C is, setting by setting: (dose: 1.5 mg/kg/injection, schedule: Q01DX009 (ip), vehicle: other) 138 % of control; (dose: 3.0 mg/kg/injection, schedule: Q01DX009 (ip), vehicle: other) 134 % of control; (dose: 64.0 mg/kg/injection, schedule: Q04DX003 (ip), vehicle: other) 133 % of control.
Regarding `COC(=O)C1=C(C(=O)OC)P2(C)(C)SC(=S)N2C1(c1ccccc1)c1ccccc1`, the survivor count under setting [3] is 4 of 6.
Turning to `Cc1cc(N/N=C/c2ccccn2)nc2ccccc12`, under “dose: 50.0 mg/kg/injection, schedule: Q01DX005 (ip), vehicle: Klucel (hydroxypropylcellulose) (HPC)”, the T/C is 129 and 133 % of control. Moreover, the survivor count was 2 of 6 and 6 of 6 (dose: 100.0 mg/kg/injection, schedule: Q01DX005 (ip), vehicle: Klucel (hydroxypropylcellulose) (HPC)); 0 of 6 under setting [3].
With `C[n+]1ccc(NC(=O)c2ccc(NC(=O)c3cccc(C(=O)Nc4ccc(C(=O)Nc5cc[n+](C)cc5)cc4)c3)cc2)cc1`, the T/C (dose: 25.0 mg/kg/injection, schedule: Q04DX003 (ip), vehicle: saline with Tween-80) is 129 and 136 % of control. The survivor count is given as 6 of 6 under setting [4]; 3 of 6 (dose: 150.0 mg/kg/injection, schedule: Q04DX003 (ip), vehicle: saline with Tween-80); 5 of 6 under setting [1]; 0 of 6 under setting [2].
As for `COc1cc2c(c(OC)c1OC)-c1ccc(N)c(=O)cc1[C@@H](NC(C)=O)CC2`, the T/C was 127 % of control (dose: 2.0 mg/kg/injection, schedule: Q01DX010 (ip), vehicle: saline) and 131 % of control (dose: 3.12 mg/kg/injection, schedule: Q01DX009 (ip), vehicle: Klucel (hydroxypropylcellulose) (HPC)). The survivor count was 7 of 7 (dose: 4.0 mg/kg/injection, schedule: Q01DX010 (ip), vehicle: saline); 6 of 6 (dose: 6.25 mg/kg/injection, schedule: Q01DX009 (ip), vehicle: Klucel (hydroxypropylcellulose) (HPC)); 3 of 6 and 6 of 6 (dose: 12.5 mg/kg/injection, schedule: Q01DX009 (ip), vehicle: Klucel (hydroxypropylcellulose) (HPC)); 0 of 6 and 3 of 6 under setting [5]; 0 of 6 and 2 of 6 under setting [6].
As for `O=P(O)(O)SP(=O)(O)O.[Ni]`, the survivor count is, setting by setting: (dose: 50.0 mg/kg/injection, schedule: Q01DX001 (ip), vehicle: suspension in saline) 0 of 6; (dose: 100.0 mg/kg/injection, schedule: Q01DX001 (ip), vehicle: suspension in saline) 0 of 6; (dose: 200.0 mg/kg/injection, schedule: Q01DX001 (ip), vehicle: suspension in saline) 0 of 6; (dose: 400.0 mg/kg/injection, schedule: Q01DX001 (ip), vehicle: suspension in saline) 0 of 6.
With `O=C1N(Cl)C(=O)C2(c3ccccc3-c3ccccc32)N1Cl`, the survivor count under setting [3] is listed as 0 of 6.
Turning to `CC1(C)CC(=O)C=C(NC2CCCCC2)C1`, the survivor count under setting [7] is recorded as 6 of 6.
`CC1=C(CO)C(=O)OC(C(C)C2CCC3C4CC5OC56C(O)C(N5CC5)=CC(=O)C6(C)C4CCC23C)C1` (centres undefined): the T/C (dose: 80.0 mg/kg/injection, schedule: Q01DX005 (ip), vehicle: Klucel (hydroxypropylcellulose) (HPC)) was 149 % of control. Besides, the survivor count (dose: 160.0 mg/kg/injection, schedule: Q01DX005 (ip), vehicle: Klucel (hydroxypropylcellulose) (HPC)) was 1 of 5.
For the compound `CCCCC(CCCC)=NO`, under “dose: 200.0 mg/kg/injection, schedule: Q01DX005 (ip), vehicle: saline with Tween-80”, the survivor count was 5 of 5.
In the case of `Oc1cc(CN2CCOCC2)c(O)cc1CN1CCOCC1`, the T/C reads like this: under setting [8], 126 % of control; under setting [9], 126 % of control; (dose: 25.0 mg/kg/injection, schedule: Q01DX009 (ip), vehicle: saline with Tween-80) 128 % of control.
Consider `CCCCN=Cc1ccccc1O.CCCCN=Cc1ccccc1O.[Zn]`, for which the survivor count under setting [10] is recorded as 0 of 6.
On to `O=C1CC(=O)N2C=CC=CC2=N1`, for which the survivor count under setting [11] is 6 of 6.
Take `COc1cc(O)c2c(c1)C(=O)c1cc3c(c(O)c1C2=O)C(O)C(OC)C(C)(O)C3=O` (centres undefined): the survivor count was 6 of 6 under setting [5] and 5 of 6 under setting [6].
On to `CNc1ccc2ccc(N(C)C)cc2n1`, for which the survivor count reads like this: (dose: 100.0 mg/kg/injection, schedule: Q04DX002 (ip), vehicle: Klucel (hydroxypropylcellulose) (HPC)) 2 of 6; (dose: 200.0 mg/kg/injection, schedule: Q04DX002 (ip), vehicle: Klucel (hydroxypropylcellulose) (HPC)) 0 of 6; (dose: 400.0 mg/kg/injection, schedule: Q04DX002 (ip), vehicle: Klucel (hydroxypropylcellulose) (HPC)) 0 of 6.
In the case of `C[N+](C)(C)/N=C(/CCC/C(=N\[N+](C)(C)C)c1ccccc1)c1ccccc1`, the survivor count is 0 of 6 (dose: 100.0 mg/kg/injection, schedule: Q04DX003 (ip), vehicle: Klucel (hydroxypropylcellulose) (HPC)); 0 of 6 (dose: 200.0 mg/kg/injection, schedule: Q04DX003 (ip), vehicle: Klucel (hydroxypropylcellulose) (HPC)); 0 of 6 (dose: 400.0 mg/kg/injection, schedule: Q04DX003 (ip), vehicle: Klucel (hydroxypropylcellulose) (HPC)).
Regarding `N#CC(=C1SCS1)[N+](=O)[O-]`, the T/C reads like this: (dose: 3.13 mg/kg/injection, schedule: Q01DX009 (ip), vehicle: saline) 128 % of control; under setting [8], 128 % of control. Besides, the survivor count runs as follows: under setting [12], 4 of 6; under setting [9], 1 of 6; under setting [13], 3 of 6; (dose: 50.0 mg/kg/injection, schedule: Q01DX009 (ip), vehicle: saline with Tween-80) 0 of 6; under setting [4], 0 of 6; under setting [7], 0 of 6.
With `CCN(CCO)CC1CCCC2CCCCC21` (centres undefined), the survivor count (dose: 240.0 mg/kg/injection, schedule: Q01DX005 (ip), vehicle: saline) was 0 of 6.
In the case of `Nc1ccc(S(=O)(=O)c2cc(O)c3ccccc3c2O)cc1`, the survivor count is on record as 0 of 6 (dose: 100.0 mg/kg/injection, schedule: Q01DX009 (ip), vehicle: Klucel (hydroxypropylcellulose) (HPC)) and 0 of 6 under setting [10].
For `CN1CC(=O)NC2C=CN(Cc3c(Cl)cccc3Cl)C=C2C1=O` (centres undefined), the survivor count (dose: 120.0 mg/kg/injection, schedule: Q01DX005 (ip), vehicle: saline with Tween-80) is 6 of 6.
For the compound `COC(=O)c1cn[nH]c1CC#N`, the survivor count (dose: 400.0 mg/kg/injection, schedule: Q04DX002 (ip), vehicle: saline with Tween-80) is listed as 0 of 6.
As to `CCCCCCCCCCCCCCC[N+]1(CC)CCCC1`, the survivor count is given as 5 of 6 (dose: 3.12 mg/kg/injection, schedule: Q01DX009 (ip), vehicle: saline); 3 of 6 under setting [12]; 1 of 6 under setting [13]; 0 of 6 (dose: 50.0 mg/kg/injection, schedule: Q01DX009 (ip), vehicle: saline); 0 of 6 under setting [11]; 0 of 6 (dose: 200.0 mg/kg/injection, schedule: Q01DX009 (ip), vehicle: saline).
